Counter-ions that a name gives are not always drawn.
Test: Anti-platelet drug interference test on ABL90 parameters
Conditions: at the tested concentrations; MgSO4: Difference Fraction max. Interf.>2 on pH, N^+, K^+, Ca^2+, Cl^−, Lac

| Structure (SMILES) | Interference on assessed ABL parameters (overall) |
| --- | --- |
| CC#CCC(C)[C@H](O)/C=C/[C@@H]1[C@H]2C/C(=C/CCCC(=O)O)C[C@H]2C[C@H]1O (stereo partly drawn) [Iloprost, iloprost] | no interference |
| O=S(=O)([O-])[O-].[Mg+2] [MgSO4] | shows interference |
| CCCCS(=O)(=O)N[C@@H](Cc1ccc(OCCCCC2CCNCC2)cc1)C(=O)O [Tirofiban, tirofiban hydrochloride monohydrate] | no interference |
